PMC9832833, “Mitogen-activated protein kinase 14-mediated phosphorylation of MaMYB4 negatively regulates banana fruit ripening”
The exact form of at least one protein or probe is not confirmed. For some of these results: No signal at the amounts used counts as a negative. For some of these results: The comparison behind a weaker result is the experiment's own reference, which may not be listed here. For some of these results: Where a protein sequence is shown, tags need not be part of it.

Columns and labels:
Experiment in all cases: EMSA
[1] = molecular target: T1, GST-MaMYB4S160A (Musa acuminata (banana)) (UniProt A0A804HW33); settings: kinase preincubation in 20 mM Tris-HCl, 20 mM MgCl2, 100 mM NaCl, 2 mM DTT, 0.5 h at 30 C, pH not stated, recombinant protein, protein details: GST (N-term, pGEX-4T-1), label: biotin
T1 sequence (looked up, limits assumed): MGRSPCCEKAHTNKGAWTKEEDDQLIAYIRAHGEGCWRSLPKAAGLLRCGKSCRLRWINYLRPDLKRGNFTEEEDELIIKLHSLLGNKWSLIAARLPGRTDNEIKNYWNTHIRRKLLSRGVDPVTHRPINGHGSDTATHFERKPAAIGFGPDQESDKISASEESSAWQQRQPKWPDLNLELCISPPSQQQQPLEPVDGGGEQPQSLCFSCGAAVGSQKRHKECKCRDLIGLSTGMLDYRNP

GST = GST alone; EMSA buffer not stated (kit per cited Fan et al.); kinase preincubation in 20 mM Tris-HCl, 20 mM MgCl2, 100 mM NaCl, 10 mM ATP, 2 mM DTT, 0.5 h at 30 C; pH not stated; recombinant protein; protein details: GST; label: biotin
[2] = molecular target: GST-MaMYB4 phosphorylated by MaMPK14 (Musa acuminata (banana)) (UniProt A0A804HW33); settings: preincubated with MBP-MaMPK14, 10 mM ATP, 20 mM MgCl2, binding enhanced vs GST-MaMYB4 alone, EMSA buffer not stated (kit per cited Fan et al.), kinase preincubation in 20 mM Tris-HCl, 20 mM MgCl2, 100 mM NaCl, 2 mM DTT, 0.5 h at 30 C, pH not stated, recombinant protein, protein details: GST (N-term, pGEX-4T-1), label: biotin

Sequence: CCAAAAACAGGGTAGGTGGATGGCTTACATGCTCACCTAATAATTTATTT (double strand) [MaACS1 promoter probe]
- binding result ([1]; preincubated with MBP-MaMPK14, 10 mM ATP, 20 mM MgCl2, EMSA buffer not stated (kit per cited Fan et al.)): binds more weakly
- binding result ([1]; without MBP-MaMPK14, EMSA buffer not stated (kit per cited Fan et al.), 10 mM ATP): binds more weakly
- binding result (GST): no binding
- binding result [2]: binds
